This is an account of results in the supplement of paper PMC10849652.

By UniProt entry, the sequences of proteins in these tests, tags left out. Where a name states a change or a piece, a line headed by the entry shows the natural chain unless it says otherwise.
UniProt Q9NXD2: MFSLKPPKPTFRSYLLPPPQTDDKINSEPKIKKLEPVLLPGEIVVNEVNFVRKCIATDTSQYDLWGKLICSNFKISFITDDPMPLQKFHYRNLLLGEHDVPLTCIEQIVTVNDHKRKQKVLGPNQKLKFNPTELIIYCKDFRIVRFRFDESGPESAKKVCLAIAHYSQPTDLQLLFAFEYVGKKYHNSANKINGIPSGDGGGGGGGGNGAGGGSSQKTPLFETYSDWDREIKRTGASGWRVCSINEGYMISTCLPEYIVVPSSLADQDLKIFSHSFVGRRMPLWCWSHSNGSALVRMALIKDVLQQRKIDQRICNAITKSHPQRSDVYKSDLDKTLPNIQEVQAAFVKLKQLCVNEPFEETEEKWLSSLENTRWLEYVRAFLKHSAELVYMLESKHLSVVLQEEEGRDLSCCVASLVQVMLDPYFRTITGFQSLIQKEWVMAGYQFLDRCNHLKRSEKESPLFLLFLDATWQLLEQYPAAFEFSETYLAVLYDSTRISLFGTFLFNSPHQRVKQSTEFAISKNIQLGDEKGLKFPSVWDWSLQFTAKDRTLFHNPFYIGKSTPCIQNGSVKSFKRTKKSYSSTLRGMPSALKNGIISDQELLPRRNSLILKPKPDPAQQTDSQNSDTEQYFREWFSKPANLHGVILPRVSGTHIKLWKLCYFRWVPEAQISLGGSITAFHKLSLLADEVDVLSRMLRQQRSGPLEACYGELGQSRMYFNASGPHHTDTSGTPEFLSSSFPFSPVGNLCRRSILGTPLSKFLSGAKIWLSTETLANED
MTHFD1, A0A384N5Y3, UniProt A0A384N5Y3, whole entry, looked up: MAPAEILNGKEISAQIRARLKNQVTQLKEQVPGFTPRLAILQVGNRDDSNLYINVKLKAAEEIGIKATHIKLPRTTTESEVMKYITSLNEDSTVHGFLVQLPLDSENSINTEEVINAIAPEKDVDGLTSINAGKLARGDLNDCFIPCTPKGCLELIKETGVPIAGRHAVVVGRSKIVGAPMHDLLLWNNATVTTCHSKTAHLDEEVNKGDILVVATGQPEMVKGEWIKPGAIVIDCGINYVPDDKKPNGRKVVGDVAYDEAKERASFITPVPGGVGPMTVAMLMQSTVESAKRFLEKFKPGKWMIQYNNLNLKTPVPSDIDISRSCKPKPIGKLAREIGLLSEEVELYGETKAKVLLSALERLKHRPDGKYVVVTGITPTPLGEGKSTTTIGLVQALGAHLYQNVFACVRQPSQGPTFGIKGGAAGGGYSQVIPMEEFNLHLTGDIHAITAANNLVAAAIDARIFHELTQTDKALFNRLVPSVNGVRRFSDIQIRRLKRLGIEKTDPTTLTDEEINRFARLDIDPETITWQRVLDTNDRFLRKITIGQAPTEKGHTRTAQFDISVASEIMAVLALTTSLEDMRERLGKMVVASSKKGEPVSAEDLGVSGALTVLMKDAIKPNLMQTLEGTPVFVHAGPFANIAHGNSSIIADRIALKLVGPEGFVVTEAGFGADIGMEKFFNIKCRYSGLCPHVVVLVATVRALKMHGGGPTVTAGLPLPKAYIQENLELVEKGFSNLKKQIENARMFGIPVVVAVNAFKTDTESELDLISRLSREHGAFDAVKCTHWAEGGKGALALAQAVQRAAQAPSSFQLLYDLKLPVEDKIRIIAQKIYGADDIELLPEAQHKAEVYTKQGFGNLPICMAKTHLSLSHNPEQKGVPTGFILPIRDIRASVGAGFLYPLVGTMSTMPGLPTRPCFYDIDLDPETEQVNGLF
UniProt Q9BTC8: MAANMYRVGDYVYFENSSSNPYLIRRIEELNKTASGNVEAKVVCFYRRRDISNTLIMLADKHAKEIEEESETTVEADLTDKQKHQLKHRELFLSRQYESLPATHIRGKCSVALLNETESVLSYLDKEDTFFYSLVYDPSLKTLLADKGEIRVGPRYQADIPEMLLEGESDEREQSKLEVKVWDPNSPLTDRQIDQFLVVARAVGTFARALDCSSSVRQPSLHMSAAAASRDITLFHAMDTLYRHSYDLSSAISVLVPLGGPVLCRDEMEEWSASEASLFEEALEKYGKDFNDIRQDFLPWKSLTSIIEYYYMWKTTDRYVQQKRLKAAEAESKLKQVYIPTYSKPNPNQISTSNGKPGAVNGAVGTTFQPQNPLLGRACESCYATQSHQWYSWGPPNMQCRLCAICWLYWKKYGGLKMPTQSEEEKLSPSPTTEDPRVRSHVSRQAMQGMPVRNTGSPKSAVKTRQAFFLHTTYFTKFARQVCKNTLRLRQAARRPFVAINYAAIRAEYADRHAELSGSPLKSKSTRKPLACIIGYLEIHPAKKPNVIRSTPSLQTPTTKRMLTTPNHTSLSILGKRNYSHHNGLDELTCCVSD
UniProt Q93083: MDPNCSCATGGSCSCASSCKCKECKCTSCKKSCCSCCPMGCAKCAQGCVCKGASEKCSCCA
UniProt P03897, whole entry, looked up: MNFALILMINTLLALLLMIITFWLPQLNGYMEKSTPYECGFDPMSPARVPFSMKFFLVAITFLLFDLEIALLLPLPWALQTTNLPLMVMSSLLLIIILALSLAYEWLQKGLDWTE
UniProt Q2M296: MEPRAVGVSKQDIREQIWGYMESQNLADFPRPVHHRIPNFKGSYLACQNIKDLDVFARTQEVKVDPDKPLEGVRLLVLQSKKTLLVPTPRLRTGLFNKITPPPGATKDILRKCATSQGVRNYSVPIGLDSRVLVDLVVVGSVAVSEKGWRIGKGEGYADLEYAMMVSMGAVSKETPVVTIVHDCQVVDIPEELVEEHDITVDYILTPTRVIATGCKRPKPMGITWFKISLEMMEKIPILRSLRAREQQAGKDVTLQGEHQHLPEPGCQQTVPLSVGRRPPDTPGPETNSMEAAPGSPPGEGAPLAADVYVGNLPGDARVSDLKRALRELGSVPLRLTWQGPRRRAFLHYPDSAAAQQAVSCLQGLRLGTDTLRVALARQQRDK
UniProt Q9NYA4: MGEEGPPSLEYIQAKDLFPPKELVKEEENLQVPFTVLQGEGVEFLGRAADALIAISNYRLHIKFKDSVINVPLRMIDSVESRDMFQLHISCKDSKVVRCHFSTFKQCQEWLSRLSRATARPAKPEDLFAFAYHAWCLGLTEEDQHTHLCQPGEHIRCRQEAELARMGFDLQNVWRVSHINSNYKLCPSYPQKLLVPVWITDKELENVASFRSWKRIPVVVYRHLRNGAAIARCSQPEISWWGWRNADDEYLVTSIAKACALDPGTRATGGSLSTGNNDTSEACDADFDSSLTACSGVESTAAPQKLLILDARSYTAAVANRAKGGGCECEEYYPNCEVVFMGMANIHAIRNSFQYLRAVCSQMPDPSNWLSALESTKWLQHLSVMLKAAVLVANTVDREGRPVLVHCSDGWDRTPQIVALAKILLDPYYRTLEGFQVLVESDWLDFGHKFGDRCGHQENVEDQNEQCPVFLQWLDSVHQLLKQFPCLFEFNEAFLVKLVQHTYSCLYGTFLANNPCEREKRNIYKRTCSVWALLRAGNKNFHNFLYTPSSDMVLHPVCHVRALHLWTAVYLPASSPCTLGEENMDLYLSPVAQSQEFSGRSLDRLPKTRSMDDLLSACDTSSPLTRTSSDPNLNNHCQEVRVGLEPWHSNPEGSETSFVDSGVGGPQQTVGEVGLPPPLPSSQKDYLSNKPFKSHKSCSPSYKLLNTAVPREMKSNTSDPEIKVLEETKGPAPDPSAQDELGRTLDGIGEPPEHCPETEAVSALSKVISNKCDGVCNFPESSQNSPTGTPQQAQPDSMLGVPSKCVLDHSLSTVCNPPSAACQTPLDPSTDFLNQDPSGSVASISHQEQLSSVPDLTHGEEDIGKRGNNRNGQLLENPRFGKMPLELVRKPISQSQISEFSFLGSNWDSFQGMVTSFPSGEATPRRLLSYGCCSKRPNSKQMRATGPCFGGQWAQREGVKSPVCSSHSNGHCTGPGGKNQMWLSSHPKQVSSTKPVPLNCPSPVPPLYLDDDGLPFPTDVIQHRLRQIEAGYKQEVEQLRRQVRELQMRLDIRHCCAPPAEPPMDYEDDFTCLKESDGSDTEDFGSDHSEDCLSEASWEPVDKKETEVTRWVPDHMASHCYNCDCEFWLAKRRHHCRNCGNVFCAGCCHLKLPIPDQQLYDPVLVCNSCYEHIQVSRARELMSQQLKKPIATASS
UniProt P08590, whole entry, looked up: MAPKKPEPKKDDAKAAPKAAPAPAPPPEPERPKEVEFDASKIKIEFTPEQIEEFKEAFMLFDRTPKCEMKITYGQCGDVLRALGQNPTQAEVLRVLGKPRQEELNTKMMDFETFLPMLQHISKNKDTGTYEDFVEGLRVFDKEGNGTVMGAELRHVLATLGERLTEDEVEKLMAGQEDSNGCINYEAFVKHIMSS
UniProt G3V1V0: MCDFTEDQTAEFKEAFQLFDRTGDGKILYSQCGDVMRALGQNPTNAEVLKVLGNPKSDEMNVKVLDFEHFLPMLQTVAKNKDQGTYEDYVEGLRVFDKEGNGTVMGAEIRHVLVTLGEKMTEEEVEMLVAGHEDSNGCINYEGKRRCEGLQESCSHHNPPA
UniProt P13640: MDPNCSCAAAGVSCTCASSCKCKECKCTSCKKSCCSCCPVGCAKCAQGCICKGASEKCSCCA
UniProt Q9H6N6: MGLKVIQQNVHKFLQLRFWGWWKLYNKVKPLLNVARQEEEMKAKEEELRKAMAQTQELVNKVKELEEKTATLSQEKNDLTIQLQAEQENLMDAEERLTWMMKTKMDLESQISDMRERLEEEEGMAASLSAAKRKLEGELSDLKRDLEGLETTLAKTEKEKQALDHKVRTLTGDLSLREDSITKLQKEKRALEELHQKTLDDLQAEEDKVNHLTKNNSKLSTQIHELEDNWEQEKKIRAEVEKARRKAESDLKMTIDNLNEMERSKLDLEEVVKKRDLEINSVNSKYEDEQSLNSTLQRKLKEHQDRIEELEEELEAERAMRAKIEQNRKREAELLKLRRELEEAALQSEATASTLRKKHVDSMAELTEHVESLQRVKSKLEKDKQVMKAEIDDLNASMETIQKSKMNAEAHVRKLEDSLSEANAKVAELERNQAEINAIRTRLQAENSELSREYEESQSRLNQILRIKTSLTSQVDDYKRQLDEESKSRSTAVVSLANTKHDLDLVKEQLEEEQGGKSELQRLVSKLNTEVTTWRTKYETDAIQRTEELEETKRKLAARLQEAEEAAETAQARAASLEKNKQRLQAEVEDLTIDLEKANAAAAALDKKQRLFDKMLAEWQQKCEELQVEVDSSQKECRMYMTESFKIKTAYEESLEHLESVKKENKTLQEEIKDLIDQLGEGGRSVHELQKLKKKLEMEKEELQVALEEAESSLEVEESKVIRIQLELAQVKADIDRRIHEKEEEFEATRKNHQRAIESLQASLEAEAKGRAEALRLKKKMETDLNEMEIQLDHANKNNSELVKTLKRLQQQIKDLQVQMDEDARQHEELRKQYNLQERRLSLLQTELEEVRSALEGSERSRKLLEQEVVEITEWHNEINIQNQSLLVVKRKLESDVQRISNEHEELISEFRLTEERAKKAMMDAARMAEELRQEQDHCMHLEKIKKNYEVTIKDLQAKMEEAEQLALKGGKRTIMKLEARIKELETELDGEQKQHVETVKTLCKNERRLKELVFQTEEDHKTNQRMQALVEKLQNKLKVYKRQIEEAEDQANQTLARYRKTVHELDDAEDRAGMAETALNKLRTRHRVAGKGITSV
UniProt P03923, whole entry, looked up: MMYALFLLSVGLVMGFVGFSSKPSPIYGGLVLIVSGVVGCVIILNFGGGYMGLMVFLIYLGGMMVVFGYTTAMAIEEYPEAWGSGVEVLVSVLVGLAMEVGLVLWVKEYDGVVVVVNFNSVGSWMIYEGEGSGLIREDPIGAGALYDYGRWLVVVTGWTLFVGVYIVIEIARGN
UniProt P00414, whole entry, looked up: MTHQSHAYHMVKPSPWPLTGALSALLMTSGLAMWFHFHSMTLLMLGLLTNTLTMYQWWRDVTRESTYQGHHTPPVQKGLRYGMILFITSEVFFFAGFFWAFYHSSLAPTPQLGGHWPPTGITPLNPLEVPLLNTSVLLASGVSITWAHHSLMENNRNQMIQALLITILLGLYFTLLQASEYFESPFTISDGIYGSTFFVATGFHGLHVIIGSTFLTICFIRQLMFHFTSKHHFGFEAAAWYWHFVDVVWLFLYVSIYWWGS
UniProt O75570: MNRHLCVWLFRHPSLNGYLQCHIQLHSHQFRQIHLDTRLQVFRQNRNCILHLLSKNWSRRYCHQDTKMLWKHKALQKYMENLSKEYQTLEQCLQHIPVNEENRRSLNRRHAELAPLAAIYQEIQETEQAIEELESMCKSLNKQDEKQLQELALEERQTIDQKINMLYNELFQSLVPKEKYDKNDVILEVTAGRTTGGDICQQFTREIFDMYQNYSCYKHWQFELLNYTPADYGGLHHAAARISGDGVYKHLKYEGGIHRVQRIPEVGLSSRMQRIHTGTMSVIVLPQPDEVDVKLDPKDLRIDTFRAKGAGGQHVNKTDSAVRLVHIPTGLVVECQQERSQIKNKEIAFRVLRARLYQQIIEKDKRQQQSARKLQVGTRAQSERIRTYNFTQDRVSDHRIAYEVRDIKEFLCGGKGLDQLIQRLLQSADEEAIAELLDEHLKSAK

The other results are listed elsewhere or left out.

Compound in one assay: C1=CC(=C(C=C1Cl)C2=NC3=NC=CN=C3C(=N2)NC4=CC=NC=C4)F
The assay is described as follows: log2 fold change, soluble protein after heating vs DMSO (PISA); higher = thermal stabilisation; K562 cells, 10 uM, 30 min; active = over 0.2 and 3.5 SD of the protein, either way, in both replicates (recomputed). The gist of the method:
(§1)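 Soluble protein was quantified by TMTpro 16plex LC-MS/MS after channel sums were equalised. It was obtained as the supernatant after 21,000xg for 90 min from pooled aliquots of K562 cells (2×10^6 cells/mL, 10 μM compound, 30 min) heated for 3 min across 48°C-58°C and extracted in PBS with 0.5% NP-40 at 4°C. Thermal stability values are relative to control samples and come from duplicates. They are given as log2 fold changes.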
On to MTMR10 (UniProt Q9NXD2), for which the log2 fold change was inactive: 0.114.

For MTFMT (UniProt Q96DP5), the log2 fold change was inactive: -0.288.

With MRPS36 (UniProt D6R941), the log2 fold change is inactive: 0.055.

As to MTIF2 (UniProt P46199), the log2 fold change is inactive: -0.092.

MTHFD1, A0A384N5Y3: the log2 fold change was inactive: 0.081.

For the target MUC7 (UniProt Q8TAX7), the log2 fold change was inactive: -0.884.

Turning to MYD88 isoform 6 (UniProt Q99836), the log2 fold change was inactive: 0.092.

For MYH6 (UniProt P13533), the log2 fold change was inactive: 0.039.

Consider MTA3 (UniProt Q9BTC8), for which the log2 fold change was inactive: 0.039.

With MTMR1 (UniProt Q13613), the log2 fold change is inactive: -0.137.

Consider MRPS14 (UniProt O60783), for which the log2 fold change was inactive: 0.091.

For MSANTD2 (UniProt Q6P1R3), the log2 fold change was inactive: 0.012.

Turning to MTHFD2L (UniProt Q9H903), the log2 fold change was inactive: -0.271.

Compound in the next assay: C1=CC(=CC=C1C2=NC3=C(N2)C=C(C=C3)C(=O)N)OC4=CC=C(C=C4)Cl
The description is as above. The gist of the method:
as §1
For the target MT1L (UniProt Q93083), the log2 fold change is inactive: 0.

For MT-ND3 (UniProt P03897), the log2 fold change is inactive: -0.156.

As to MTHFSD isoform 3 (UniProt Q2M296), the log2 fold change is inactive: -0.011.

MTMR4 (UniProt Q9NYA4): the log2 fold change was inactive: 0.179.

As for MYH3 (UniProt P11055), the log2 fold change was inactive: -0.139.

On to MYL3 (UniProt P08590), for which the log2 fold change is inactive: 0.031.

On to MYLK (UniProt Q15746), for which the log2 fold change is inactive: -0.146.

For MYH6 (UniProt P13533), the log2 fold change is inactive: -0.121.

Take MTA3 (UniProt Q9BTC8): the log2 fold change is inactive: -0.08.

In the case of MT-CO1 (UniProt P00395), the log2 fold change is inactive: 0.025.

Regarding MTERF3 (UniProt Q96E29), the log2 fold change was inactive: -0.019.

Take MYL6 (UniProt G3V1V0): the log2 fold change is inactive: -0.112.

Regarding MTHFD1L (UniProt B7ZM99), the log2 fold change is inactive: 0.051.

Turning to MT-ND2 (UniProt P03891), the log2 fold change is inactive: 0.062.

Take MT1G (UniProt P13640): the log2 fold change is inactive: 0.

On to MYH16 (UniProt Q9H6N6), for which the log2 fold change was inactive: 0.049.

Compound in a further assay: C1=CC2=C(C=CC(=C2)/C=C\3/C(=O)NC(=NCC4=CC=CS4)S3)N=C1
Described as above. The method in brief:
as §1
For the target MT1L (UniProt Q93083), the log2 fold change was inactive: 0.177.

As for MTHFSD isoform 3 (UniProt Q2M296), the log2 fold change is inactive: -0.035.

Regarding MTHFSD (UniProt Q2M296), the log2 fold change is inactive: -0.017.

With MTHFD1, A0A384N5Y3, the log2 fold change was inactive: 0.146.

Turning to MYD88 isoform 6 (UniProt Q99836), the log2 fold change is inactive: -0.067.

Consider MT-CO1 (UniProt P00395), for which the log2 fold change was inactive: 0.214.

For MT-ND6 (UniProt P03923), the log2 fold change is inactive: -0.132.

As to MT-CO3 (UniProt P00414), the log2 fold change is inactive: 0.178.

Regarding MTMR1 (UniProt Q13613), the log2 fold change was inactive: 0.157.

In the case of MYL6 (UniProt G3V1V0), the log2 fold change is inactive: -0.006.

Take MTHFD1L (UniProt B7ZM99): the log2 fold change is inactive: 0.052.

With MTSS1 isoform 5 (UniProt O43312), the log2 fold change was inactive: 0.129.

As for MTRF1 (UniProt O75570), the log2 fold change is inactive: -0.116.

On to MT-ND2 (UniProt P03891), for which the log2 fold change is inactive: -0.108.

For MRPS14 (UniProt O60783), the log2 fold change is inactive: 0.154.

In the case of MT1G (UniProt P13640), the log2 fold change is inactive: -0.081.

With MYH16 (UniProt Q9H6N6), the log2 fold change is inactive: -0.21.
